Among the data in patent US6737433B1, “1-N-phenylamino-1H-imidazole derivatives as aromatase inhibitors and pharmaceutical compositions containing them” (Laboratoire Theramex, priority 2002, dated 2004) are IC50 values, retold here.

The experiment concerns the target T1, human aromatase (Homo sapiens, UniProt P11511).
T1 construct: The JEG-3 cell line, derived from a human placental choriocarcinoma, is intrinsically very rich in human aromatase; endogenous in cells; host or cells: JEG-3 (human placental choriocarcinoma)
T1 sequence (P11511 1-503): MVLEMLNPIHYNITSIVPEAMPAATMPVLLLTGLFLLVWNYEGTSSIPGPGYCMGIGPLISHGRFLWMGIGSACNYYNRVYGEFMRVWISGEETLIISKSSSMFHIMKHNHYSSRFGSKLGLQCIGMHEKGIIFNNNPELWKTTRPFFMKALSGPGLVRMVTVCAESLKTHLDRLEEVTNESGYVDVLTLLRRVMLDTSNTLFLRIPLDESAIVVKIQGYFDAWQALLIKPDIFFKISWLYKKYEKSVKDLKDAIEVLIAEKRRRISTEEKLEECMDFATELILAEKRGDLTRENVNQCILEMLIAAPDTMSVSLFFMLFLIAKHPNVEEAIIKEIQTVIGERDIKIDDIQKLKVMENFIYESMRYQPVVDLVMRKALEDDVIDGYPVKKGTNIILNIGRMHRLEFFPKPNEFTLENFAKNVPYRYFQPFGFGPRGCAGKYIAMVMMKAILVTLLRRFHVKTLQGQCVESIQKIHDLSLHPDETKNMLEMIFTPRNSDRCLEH
The experiment in a line: Inhibition of human aromatase in vitro in JEG-3 cells (3H-water release from 1β-3H-androstenedione). Format: cell-based. As to conditions: 10 nM 1β-3H-androstenedione, 2 h incubation. How it is done: Stocks of JEG-3 cells are grown up to 80% of confluence as monolayers in plastic flasks in minimum Eagle's medium with 1 g/l glucose and 10% decomplemented fetal calf serum at pH 7.4 and 37° C., under a 5% CO2 atmosphere. Then, 24 hours before aromatase activity measurement, JEG-3 cells are distributed for seeding in 96-well microplates (60,000 to 100,000 viable cells in 100 μl of culture medium per well); 24 hours later, microplates are rinsed and fresh medium containing the radioactive aromatase substrate (1β-^3H-androstenedione, 10 nM) is added together with test compounds dissolved with 1% dimethylsulfoxyde in a test concentration range between 10^−11 and 10^−4 M in a total volume of 150 μl.
Two hours after the beginning of the incubation, 100 μl of the supernatants are transferred to homologous new 96-well microplates. A solution of dextran-coated charcoal (1%) is added in each well (100 μl/well); after standing for 10 minutes on ice, microplates are centrifuged (1500 g) for 10 more minutes at 4° C. All steroids, including the radioactive substrate and the newly biosynthesized estrogens, are trapped complexed by the charcoal; only the ^3H-water specifically formed during aromatisation of 1β-^3H-androstenedione, involving a specific oxidative step removing the 1β-^3H, remains in the supernatant at this stage. […]

As usually defined, the IC50 is the concentration at which inhibition is half-maximal. Low readings indicate greater potency in that assay, high ones weaker potency in that assay. As for `CC(C)(C#N)c1cc(Cn2cncn2)cc(C(C)(C)C#N)c1` [Anastrozole, anastrozole, reference compound], the IC50 is 8.21 ± 1.27 nM.
